These are yes or no findings as the source states them, for the method shown. In cells and extracts the contact can be indirect. Some results given as binding are weak or reduced against the parent protein; the word gives no strength.
What was measured:
[1] = biological target: T1, MERTK (human (endogenous in H4006)) (UniProt Q12866); experiment: co-IP; serum-starved parental cells (H4006-par), with or without 10 min GAS6 or EGF, with or without 2 h MRX-2843 and/or OSI, treated with pervanadate; MERTK or EGFR immunoprecipitated from cell lysates, EGFR and MERTK detected by immunoblot
T1 sequence: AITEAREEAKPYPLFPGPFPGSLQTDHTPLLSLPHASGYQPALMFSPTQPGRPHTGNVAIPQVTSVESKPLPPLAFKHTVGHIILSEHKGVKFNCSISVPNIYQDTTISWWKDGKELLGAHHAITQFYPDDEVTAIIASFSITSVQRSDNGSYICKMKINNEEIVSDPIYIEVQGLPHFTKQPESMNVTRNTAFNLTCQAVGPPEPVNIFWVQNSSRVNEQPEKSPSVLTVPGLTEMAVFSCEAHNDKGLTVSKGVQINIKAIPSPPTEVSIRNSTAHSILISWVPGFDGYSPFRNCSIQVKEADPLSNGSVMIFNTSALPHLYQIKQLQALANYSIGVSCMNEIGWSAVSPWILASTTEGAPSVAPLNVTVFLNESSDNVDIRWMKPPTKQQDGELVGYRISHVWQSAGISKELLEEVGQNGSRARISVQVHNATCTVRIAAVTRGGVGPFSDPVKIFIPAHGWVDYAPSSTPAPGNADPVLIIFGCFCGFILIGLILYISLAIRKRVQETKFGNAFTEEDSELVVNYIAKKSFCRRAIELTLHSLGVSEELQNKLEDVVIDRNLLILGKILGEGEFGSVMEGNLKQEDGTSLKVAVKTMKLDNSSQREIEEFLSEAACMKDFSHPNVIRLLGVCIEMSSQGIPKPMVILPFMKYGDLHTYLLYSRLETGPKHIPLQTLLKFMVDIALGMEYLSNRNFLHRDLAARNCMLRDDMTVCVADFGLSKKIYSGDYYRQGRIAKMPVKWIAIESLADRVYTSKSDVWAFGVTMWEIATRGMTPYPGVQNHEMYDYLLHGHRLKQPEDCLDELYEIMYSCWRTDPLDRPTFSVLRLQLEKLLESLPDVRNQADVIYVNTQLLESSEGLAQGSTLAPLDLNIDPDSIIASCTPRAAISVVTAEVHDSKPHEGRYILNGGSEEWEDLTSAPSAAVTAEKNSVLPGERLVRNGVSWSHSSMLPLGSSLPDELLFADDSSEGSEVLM

[2] = biological target: T1, MERTK (human (endogenous in H4006)); experiment: condition: only in OSI-resistant derivative cells (H4006-OSIR); co-IP; serum-starved OSI-resistant cells (H4006-OSIR), with or without 10 min GAS6 or EGF, treated with pervanadate; MERTK or EGFR immunoprecipitated from cell lysates, EGFR and MERTK detected by immunoblot

binding [1]: binds | binding [2]: no binding
Substance: EGFR (E746-A750del, as carried by H4006 cells) (from UniProt P00533 25-1210) (receptor)
